One data set is described as follows: general procedure: solution-phase peptide synthesis; HATU / N,N-diisopropylethylamine. The settings on record: coupling step.
Regarding “2-Naphthyl-AlaGlnThr(OBn)GlyThr(OBn)GlyLys(Cbz)Thr(OBn)OBn”, the step yield worked out at 64%.
For the substance “2-PhPh-AlaGlnThr(OBn)GlyThr(OBn)GlyLys(Cbz)Thr(OBn)OBn”, the step yield is recorded as 49%.
With “3-PhPh-AlaGlnThr(OBn)GlyThr(OBn)GlyLys(Cbz)Thr(OBn)OBn”, the step yield is 38%.
Regarding “4-OMePh-AlaGlnThr(OBn)GlyThr(OBn)GlyLys(Cbz)Thr(OBn)OBn”, the step yield was 50%.
Turning to “Ac-AlaGlnThr(OBn)GlyThr(OBn)GlyLys(Cbz)Thr(OBn)OBn”, the step yield came to 33%.
The same measure, in the same setting: the same measure for “BocGlnThr(OBn)GlyThr(OBn)GlyLys(Cbz)Thr(OBn) OBn”: 89% overall yield; for “BocThr(OBn)GlyThr(OBn)GlyLys(Cbz)Thr (OBn)OBn”: >100%.
The substance “Ph-AlaGlnThr(OBn)GlyThr(OBn)GlyLys(Cbz)Thr(OBn)OBn” showed a step yield of 58%.

The data set is the same for the next values; noted with them: late stage modification step.
Take 2-PhPh-AQTGTGKT: the “final purity (method not given)” value is given as 95% or more and the step yield turned out to be 31%.
For 3-PhPh-AQTGTGKT, the “final purity (method not given)” value is 90% or more and the step yield is on record as 5%.
Turning to 4-MeOPh-AQTGTGKT, the “final purity (method not given)” value is 89% and the step yield is on record as 10%.
Take Ac-AQTGTGKT: the step yield came to 37%.
In turn, “GlnThr(OBn)GlyThr(OBn)GlyLys(Cbz) Thr(OBn)OBn” had a step yield of 96%.
Turning to Ph-AQTGTGKT, the “final purity (method not given)” value is recorded as 90% or more and the step yield amounted to 33%.
In the same order, the values of naphthyl-AQTGTGKT are 85% and 33%.

Source of the values: US20250213645A1 (L-BASE CO., LTD., priority 2021, published 2025).
